± gives the standard deviation. The entries are a selection whose mix differs from that of the whole data set. Many entries were measured with a wide error.
These sequences were tested on MILI (PIWIL2) piRISC loaded with L1MC piRNA (26 nt) (assay: pre-steady-state target cleavage rate (min^-1); MIWI and MILI are mouse PIWI proteins and EfPiwi is from a freshwater sponge; tags in brackets are library labels; higher = faster piRNA-guided slicing of the target). Settings: guide: L1MC piRNA 5'p-UAACUAAAUACUAUGCAAGCUGUAGG; auxiliary factor: 500 nM mouse GTSF1.
Experimental: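 Cleave-'n-Seq: a library of target RNAs (target site embedded in constant flanks, ACAGCATTCCGCGTTAGTGATATCCG... 5' flank; DNA-blocked outside the site) at 0.1 nM was incubated with 1 nM active mouse MILI or MIWI piRISC (synthetic 5'-monophosphorylated piRNA guide) with or without 500 nM mouse GTSF1 at 33 °C for 1 min to 16 h. Uncleaved targets were sequenced and normalised to non-target controls, and the pooled three trials were fitted to a burst-and-steady-state model to give the pre-steady-state cleavage rate (min^-1; k3 is constrained to at most 1e-4). Sequence is the target site only; target names encode pairing extent (gX:gY) and contiguous / 1-mismatch / 2-mismatch / bulge geometry. Fits with R² ≤ 0 are excluded.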
UCCUGCUAGAGCUUGCAUUGUAUUUAGUUA was tested, and the “pre-steady-state target cleavage rate” value was 0.219 ± 0.018.
With UCCUCCUUCAGCUAGCAUAGUAUUUAGUUA the “pre-steady-state target cleavage rate” value was 0.228 ± 0.017.
In the case of UCCUGGUACAGCUACCAUAGUAUUUAGUUA, the “pre-steady-state target cleavage rate” value is reported as 0.305 ± 0.044.
With UCCUGGAUGUCCUUGCAUAGUAAUUUAGUUA the “pre-steady-state target cleavage rate” value was 0.0401 ± 0.013.
For UCCUGCUACUCCUUGCAUAGUAUUUAGUAA, the “pre-steady-state target cleavage rate” value was 0.188 ± 0.023.
In the case of UCCUGGAACAGCUUGCACUAGUAUUUAGUUA, the “pre-steady-state target cleavage rate” value is reported as 0.0388 ± 0.0091.
UCCUGGAUCAGCUUGGUAAGUAUUUAGUUA was tested, and the “pre-steady-state target cleavage rate” value was 0.0316 ± 0.0076.
In the case of UCCUGGAUCAGCUUGCAAUAGUAUUUAGUUA, the “pre-steady-state target cleavage rate” value is reported as 0.00703 ± 0.0039.
UCCUGGUACUGCUUGCAUAGUUUUUAGUUA was tested, and the “pre-steady-state target cleavage rate” value was 0.0403 ± 0.012.
In the case of UCCUGGAUGUCGAUGCUAUAGUAUUUAGUUA, the “pre-steady-state target cleavage rate” value is reported as 0.000952 ± 0.011.
UCCUGGUAGAGGUUGCAUAGUAUUUAGUUA was tested, and the “pre-steady-state target cleavage rate” value was 0.185 ± 0.024.
In the case of UCCUGCUACAGCUUGGUAAGUAUUUAGUUA, the “pre-steady-state target cleavage rate” value is reported as 0.131 ± 0.019.
In the case of UCCUGGAUGAGCUUGCAUAGUAGUUAGUUA, the “pre-steady-state target cleavage rate” value is reported as 0.158 ± 0.026.

Same assay, conditions: guide: L1MC piRNA 5'p-UAACUAAAUACUAUGCAAGCUGUAGG; auxiliary factor: none (no GTSF1)
With UCCUGCUAGAGCUUGCAUUGUAUUUAGUUA the “pre-steady-state target cleavage rate” value was 0.0097 ± 0.0023.
UCCUGGAUGUCGAACCAUAGUAUUAUAGUUA was tested, and the “pre-steady-state target cleavage rate” value was 0.000265 ± 0.02.
In the case of UCCUCCUUCAGCUAGCAUAGUAUUUAGUUA, the “pre-steady-state target cleavage rate” value is reported as 0.00519 ± 0.0022.
In the case of UCCUGGUACAGCUUGGUUAGUAUUUAGAAA, the “pre-steady-state target cleavage rate” value is reported as 0.0017 ± 0.0044.
UCCUGGAUGAGCUUGCAUUGUAUUUACUUA was tested, and the “pre-steady-state target cleavage rate” value was 0.0012 ± 0.0059.
In the case of UCCUGGAUGUCCUUGCAUAGUAAUUUAGUUA, the “pre-steady-state target cleavage rate” value is reported as 0.00555 ± 0.0026.
UCCUGCUACUCCUUGCAUAGUAUUUAGUAA was tested, and the “pre-steady-state target cleavage rate” value was 0.00412 ± 0.002.
With UCCUGGAACAGCUUGCACUAGUAUUUAGUUA the “pre-steady-state target cleavage rate” value was 0.00243 ± 0.0027.
With UCCUGGAUCAGCUUGGUAAGUAUUUAGUUA the “pre-steady-state target cleavage rate” value was 0.00588 ± 0.0023.
With UCCUGGAUCACCUUCCAUAGUAUUUAGUUA the “pre-steady-state target cleavage rate” value was 0.00116 ± 0.0067.
With UCCUGGAUGUGCUUGCAUAGUAUUUAGGUA the “pre-steady-state target cleavage rate” value was 0.00112 ± 0.0081.
In the case of UCCUGGAUCAGCUUGCAAUAGUAUUUAGUUA, the “pre-steady-state target cleavage rate” value is reported as 0.00119 ± 0.0063.
In the case of UCCUGGUACAGCUUGCAUUCUAUUUAGAAA, the “pre-steady-state target cleavage rate” value is reported as 0.00155 ± 0.0073.
For UCCUGGAACAGCUUCCAUAGUAUUUAGUAA, the “pre-steady-state target cleavage rate” value was 0.00133 ± 0.0046.
UCCUGGAUGAGCUUGCCAUAGUAUUUAGUUA was tested, and the “pre-steady-state target cleavage rate” value was 0.00123 ± 0.006.
UCCUCCUACAGCUUGCAUUCAAUUUACAAA was tested, and the “pre-steady-state target cleavage rate” value was 0.000509 ± 0.0075.
UCCUGGUACUGCUUGCAUAGUUUUUAGUUA was tested, and the “pre-steady-state target cleavage rate” value was 0.00996 ± 0.0046.
For UCCUGGAUGUCGUUGCAUAGAUAUUAGUUA, the “pre-steady-state target cleavage rate” value was 0.000627 ± 0.0084.
For UCCUGGAUGUCGAUGCUAUAGUAUUUAGUUA, the “pre-steady-state target cleavage rate” value was 0.000598 ± 0.0091.
UCCUGGAACAGCUUGCAUAGUUUUAAGUUA was tested, and the “pre-steady-state target cleavage rate” value was 0.00203 ± 0.0036.
UCCUGGAUGUCGAACCUUUGUAUUUAGUUA was tested, and the “pre-steady-state target cleavage rate” value was 0.000279 ± 0.012.
For UCCUCCUACAGCUUGCAUAGUAUUUAUUA, the “pre-steady-state target cleavage rate” value was 0.00138 ± 0.0052.
For UCCUGGAUGUCGUUGCAUAGUAUUUUGUUA, the “pre-steady-state target cleavage rate” value was 0.00287 ± 0.0034.
UCCUGCUACAGCUUGCAUAGAUUUUAGUAA was tested, and the “pre-steady-state target cleavage rate” value was 0.00091 ± 0.0067.
In the case of UCCUGGUAGAGGUUGCAUAGUAUUUAGUUA, the “pre-steady-state target cleavage rate” value is reported as 0.0103 ± 0.0031.
In the case of UCCUGCUACAGCUUGGUAAGUAUUUAGUUA, the “pre-steady-state target cleavage rate” value is reported as 0.00591 ± 0.0018.
For UCCUGGAUGAGCUUGCAUAGUAGUUAGUUA, the “pre-steady-state target cleavage rate” value was 0.00314 ± 0.0032.
